Measured values published in patent US20150086515A1.
No constants are given. Whether binding was seen depends on the method and setting. Some results given as binding are weak or reduced against the parent protein; the word gives no strength.

Protein sequences, listed by entry. Tags and fused reporters are not part of them. Lines headed by an entry give the natural chain unless they say otherwise; changes in a name come on top.
UniProt P06756: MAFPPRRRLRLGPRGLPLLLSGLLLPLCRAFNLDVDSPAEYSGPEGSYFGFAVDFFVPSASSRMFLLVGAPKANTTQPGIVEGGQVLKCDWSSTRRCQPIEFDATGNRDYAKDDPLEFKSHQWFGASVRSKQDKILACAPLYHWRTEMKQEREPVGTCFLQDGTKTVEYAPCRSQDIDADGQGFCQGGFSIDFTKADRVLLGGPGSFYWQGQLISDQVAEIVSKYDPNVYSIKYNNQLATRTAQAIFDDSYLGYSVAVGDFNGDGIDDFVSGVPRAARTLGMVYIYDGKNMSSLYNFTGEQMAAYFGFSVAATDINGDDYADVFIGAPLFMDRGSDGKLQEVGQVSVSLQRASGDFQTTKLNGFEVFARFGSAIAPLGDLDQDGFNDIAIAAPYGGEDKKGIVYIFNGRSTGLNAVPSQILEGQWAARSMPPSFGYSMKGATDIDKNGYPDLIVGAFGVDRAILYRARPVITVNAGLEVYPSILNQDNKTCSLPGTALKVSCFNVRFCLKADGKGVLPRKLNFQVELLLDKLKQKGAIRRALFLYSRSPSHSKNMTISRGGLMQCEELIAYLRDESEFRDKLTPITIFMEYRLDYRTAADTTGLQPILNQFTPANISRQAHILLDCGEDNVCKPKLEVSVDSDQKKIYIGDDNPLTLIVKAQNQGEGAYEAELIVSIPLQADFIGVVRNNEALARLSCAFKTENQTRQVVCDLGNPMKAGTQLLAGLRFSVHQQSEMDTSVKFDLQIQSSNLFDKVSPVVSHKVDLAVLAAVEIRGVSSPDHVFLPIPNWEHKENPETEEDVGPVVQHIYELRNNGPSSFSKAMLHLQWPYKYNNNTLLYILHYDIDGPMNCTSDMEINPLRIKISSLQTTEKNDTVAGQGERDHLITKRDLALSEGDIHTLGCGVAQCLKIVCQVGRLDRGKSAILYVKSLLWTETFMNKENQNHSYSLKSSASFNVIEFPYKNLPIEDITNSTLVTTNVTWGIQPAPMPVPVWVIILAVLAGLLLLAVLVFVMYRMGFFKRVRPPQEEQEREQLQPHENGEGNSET
UniProt P05106: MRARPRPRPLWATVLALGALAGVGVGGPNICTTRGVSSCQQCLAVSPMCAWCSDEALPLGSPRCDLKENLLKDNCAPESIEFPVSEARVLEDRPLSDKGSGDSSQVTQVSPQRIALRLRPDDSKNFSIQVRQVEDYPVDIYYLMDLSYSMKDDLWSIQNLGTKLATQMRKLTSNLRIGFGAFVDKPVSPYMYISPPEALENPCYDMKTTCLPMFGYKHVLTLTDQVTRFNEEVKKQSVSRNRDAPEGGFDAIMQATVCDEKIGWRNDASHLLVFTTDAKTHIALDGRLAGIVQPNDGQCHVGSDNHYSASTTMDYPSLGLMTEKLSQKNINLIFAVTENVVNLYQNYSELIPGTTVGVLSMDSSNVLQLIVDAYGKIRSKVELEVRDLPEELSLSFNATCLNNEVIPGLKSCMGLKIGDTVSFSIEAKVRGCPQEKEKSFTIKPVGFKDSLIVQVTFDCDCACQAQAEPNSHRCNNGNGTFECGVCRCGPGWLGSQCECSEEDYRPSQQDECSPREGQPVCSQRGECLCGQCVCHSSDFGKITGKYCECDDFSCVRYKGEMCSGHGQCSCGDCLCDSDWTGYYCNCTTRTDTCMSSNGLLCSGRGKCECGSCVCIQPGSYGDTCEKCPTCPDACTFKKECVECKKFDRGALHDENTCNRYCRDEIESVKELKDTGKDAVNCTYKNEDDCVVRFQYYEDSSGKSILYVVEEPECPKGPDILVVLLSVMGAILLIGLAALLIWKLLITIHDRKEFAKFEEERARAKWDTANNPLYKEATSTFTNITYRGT
UniProt P01375: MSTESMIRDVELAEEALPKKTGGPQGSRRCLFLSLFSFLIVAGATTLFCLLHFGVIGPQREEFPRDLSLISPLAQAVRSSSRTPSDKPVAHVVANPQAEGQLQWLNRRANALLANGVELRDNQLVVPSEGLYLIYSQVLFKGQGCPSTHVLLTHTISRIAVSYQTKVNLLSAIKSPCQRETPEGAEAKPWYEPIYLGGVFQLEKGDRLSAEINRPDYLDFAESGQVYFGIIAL

Molecular target: integrin αvβ3 on U87MG human glioblastoma cells (human) (UniProt P06756+P05106)
Assay: cell adhesion assay: TNF-RGD4C captured on an anti-TNF antibody-coated plate, adherent U87MG cells stained with crystal violet, A600 read

## secreted wild-type TNF-RGD4C fusion protein (from UniProt P01375 77-233) (ligand)
  binding: binds
